Assay results reported in the supplement of paper PMC12067093, “Discovery and optimisation of a covalent ligand for TRIM25 and its application to targeted protein ubiquitination” (Chemical Science, 2025).
Some of the results follow.

Amino acid sequences for entries named in this document (tags omitted). A change or cut given only in a name is not applied to a line headed by its entry.
UniProt Q9Y5J1: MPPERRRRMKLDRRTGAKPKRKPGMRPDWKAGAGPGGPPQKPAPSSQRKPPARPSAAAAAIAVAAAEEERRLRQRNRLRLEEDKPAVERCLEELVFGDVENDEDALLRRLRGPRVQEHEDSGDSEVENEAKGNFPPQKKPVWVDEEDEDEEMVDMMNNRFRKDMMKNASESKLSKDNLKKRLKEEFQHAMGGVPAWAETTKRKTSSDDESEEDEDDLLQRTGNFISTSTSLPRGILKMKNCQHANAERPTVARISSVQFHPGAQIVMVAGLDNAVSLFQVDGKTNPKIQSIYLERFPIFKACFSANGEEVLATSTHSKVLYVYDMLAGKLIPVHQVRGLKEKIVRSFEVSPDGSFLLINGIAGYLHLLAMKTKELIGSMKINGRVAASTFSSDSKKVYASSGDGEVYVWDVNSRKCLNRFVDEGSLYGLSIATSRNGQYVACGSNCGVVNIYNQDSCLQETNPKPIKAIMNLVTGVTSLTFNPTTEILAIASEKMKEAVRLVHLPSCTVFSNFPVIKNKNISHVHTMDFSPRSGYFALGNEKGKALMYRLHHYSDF
UniProt P26640: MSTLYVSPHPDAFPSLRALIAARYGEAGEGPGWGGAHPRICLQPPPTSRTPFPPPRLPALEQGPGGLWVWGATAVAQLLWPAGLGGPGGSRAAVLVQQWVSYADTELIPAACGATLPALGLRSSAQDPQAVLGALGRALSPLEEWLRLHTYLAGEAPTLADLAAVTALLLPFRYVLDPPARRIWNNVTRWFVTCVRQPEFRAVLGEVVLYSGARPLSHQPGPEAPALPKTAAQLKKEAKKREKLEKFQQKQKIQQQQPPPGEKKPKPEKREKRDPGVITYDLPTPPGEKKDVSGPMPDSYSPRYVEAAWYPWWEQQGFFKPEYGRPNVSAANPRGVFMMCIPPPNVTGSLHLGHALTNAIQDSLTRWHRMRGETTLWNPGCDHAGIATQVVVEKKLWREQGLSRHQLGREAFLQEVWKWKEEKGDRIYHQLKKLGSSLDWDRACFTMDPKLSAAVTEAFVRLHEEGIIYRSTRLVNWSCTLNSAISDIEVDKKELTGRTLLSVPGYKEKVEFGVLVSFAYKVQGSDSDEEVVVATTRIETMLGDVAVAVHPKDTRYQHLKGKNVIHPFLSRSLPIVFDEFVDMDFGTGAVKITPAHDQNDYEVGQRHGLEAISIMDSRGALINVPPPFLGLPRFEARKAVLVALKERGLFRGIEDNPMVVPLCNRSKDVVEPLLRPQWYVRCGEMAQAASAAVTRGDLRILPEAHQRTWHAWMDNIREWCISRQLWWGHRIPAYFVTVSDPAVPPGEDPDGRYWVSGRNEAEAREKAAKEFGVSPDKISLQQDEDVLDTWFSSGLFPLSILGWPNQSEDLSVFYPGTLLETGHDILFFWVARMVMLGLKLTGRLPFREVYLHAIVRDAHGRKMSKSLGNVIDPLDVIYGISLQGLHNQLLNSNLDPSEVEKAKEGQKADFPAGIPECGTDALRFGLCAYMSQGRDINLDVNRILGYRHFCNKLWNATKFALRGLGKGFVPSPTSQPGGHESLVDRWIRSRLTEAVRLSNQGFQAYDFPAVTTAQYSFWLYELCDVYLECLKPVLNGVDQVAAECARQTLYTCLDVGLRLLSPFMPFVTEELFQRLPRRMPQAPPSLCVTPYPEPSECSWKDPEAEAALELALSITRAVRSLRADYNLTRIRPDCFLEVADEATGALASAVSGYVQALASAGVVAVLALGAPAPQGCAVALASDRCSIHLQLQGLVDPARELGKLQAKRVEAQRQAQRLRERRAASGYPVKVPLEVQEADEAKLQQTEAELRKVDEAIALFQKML
UniProt Q9P0L0: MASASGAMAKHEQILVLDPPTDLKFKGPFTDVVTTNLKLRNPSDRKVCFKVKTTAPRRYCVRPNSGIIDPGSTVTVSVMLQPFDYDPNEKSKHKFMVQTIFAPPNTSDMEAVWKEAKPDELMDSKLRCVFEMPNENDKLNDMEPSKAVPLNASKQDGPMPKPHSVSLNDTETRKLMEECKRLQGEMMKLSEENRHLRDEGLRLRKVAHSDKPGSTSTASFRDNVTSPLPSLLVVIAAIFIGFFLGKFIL
UniProt Q99986: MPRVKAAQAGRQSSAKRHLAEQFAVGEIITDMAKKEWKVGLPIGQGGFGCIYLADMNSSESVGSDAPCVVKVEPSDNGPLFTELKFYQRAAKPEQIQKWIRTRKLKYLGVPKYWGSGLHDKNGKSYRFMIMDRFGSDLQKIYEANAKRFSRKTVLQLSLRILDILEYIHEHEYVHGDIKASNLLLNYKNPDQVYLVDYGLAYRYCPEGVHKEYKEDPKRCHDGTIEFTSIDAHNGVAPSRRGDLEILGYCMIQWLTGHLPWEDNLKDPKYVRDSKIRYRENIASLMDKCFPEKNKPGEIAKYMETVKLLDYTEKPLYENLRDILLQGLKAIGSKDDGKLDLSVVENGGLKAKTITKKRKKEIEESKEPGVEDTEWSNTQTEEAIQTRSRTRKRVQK
UniProt Q9P253: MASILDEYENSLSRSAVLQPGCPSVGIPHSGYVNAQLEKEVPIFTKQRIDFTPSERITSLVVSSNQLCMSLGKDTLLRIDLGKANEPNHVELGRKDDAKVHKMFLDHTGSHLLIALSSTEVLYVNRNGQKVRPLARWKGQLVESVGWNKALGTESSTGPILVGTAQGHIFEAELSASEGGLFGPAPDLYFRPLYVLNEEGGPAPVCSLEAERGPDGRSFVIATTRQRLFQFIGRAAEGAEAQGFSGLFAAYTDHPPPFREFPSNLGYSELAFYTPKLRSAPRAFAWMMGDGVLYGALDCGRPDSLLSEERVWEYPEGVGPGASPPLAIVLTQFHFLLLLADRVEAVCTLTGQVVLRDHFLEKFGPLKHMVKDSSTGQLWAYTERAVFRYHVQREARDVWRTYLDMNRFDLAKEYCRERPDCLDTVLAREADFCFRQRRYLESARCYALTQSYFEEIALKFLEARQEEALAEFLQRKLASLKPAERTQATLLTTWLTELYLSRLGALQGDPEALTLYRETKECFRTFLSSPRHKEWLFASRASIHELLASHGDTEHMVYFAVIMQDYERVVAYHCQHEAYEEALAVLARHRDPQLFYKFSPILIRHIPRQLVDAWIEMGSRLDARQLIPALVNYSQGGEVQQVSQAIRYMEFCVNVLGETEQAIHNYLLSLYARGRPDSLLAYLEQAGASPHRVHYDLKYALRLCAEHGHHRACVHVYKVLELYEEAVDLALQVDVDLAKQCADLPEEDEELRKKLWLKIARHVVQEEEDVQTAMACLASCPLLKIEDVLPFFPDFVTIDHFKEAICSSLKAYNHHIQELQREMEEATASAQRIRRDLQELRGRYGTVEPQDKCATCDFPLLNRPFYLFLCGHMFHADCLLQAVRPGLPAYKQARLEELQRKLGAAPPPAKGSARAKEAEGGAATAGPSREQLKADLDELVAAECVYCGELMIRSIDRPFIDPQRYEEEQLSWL
UniProt Q96JC1: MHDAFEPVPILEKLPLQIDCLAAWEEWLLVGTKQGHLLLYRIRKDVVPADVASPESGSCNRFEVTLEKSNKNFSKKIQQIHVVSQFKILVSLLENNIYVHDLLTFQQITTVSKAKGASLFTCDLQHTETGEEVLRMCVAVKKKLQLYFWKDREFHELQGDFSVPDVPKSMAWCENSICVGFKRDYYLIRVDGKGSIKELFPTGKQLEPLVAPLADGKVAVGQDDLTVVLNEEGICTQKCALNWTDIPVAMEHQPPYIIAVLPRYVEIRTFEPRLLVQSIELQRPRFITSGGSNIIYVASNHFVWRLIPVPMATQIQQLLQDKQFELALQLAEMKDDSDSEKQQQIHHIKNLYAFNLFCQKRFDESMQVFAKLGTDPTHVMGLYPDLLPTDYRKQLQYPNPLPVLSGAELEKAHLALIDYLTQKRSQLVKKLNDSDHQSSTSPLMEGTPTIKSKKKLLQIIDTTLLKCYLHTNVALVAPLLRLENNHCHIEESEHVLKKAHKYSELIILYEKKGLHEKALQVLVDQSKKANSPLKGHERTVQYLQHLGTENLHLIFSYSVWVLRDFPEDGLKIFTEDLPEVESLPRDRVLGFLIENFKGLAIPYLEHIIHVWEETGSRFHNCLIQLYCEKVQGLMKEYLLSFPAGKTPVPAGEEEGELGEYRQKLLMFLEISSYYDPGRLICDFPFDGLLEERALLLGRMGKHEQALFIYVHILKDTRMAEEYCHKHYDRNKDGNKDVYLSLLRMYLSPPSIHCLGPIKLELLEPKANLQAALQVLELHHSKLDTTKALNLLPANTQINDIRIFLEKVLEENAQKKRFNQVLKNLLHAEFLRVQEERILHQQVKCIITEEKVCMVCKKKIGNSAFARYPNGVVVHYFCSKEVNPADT
UniProt Q96JH7: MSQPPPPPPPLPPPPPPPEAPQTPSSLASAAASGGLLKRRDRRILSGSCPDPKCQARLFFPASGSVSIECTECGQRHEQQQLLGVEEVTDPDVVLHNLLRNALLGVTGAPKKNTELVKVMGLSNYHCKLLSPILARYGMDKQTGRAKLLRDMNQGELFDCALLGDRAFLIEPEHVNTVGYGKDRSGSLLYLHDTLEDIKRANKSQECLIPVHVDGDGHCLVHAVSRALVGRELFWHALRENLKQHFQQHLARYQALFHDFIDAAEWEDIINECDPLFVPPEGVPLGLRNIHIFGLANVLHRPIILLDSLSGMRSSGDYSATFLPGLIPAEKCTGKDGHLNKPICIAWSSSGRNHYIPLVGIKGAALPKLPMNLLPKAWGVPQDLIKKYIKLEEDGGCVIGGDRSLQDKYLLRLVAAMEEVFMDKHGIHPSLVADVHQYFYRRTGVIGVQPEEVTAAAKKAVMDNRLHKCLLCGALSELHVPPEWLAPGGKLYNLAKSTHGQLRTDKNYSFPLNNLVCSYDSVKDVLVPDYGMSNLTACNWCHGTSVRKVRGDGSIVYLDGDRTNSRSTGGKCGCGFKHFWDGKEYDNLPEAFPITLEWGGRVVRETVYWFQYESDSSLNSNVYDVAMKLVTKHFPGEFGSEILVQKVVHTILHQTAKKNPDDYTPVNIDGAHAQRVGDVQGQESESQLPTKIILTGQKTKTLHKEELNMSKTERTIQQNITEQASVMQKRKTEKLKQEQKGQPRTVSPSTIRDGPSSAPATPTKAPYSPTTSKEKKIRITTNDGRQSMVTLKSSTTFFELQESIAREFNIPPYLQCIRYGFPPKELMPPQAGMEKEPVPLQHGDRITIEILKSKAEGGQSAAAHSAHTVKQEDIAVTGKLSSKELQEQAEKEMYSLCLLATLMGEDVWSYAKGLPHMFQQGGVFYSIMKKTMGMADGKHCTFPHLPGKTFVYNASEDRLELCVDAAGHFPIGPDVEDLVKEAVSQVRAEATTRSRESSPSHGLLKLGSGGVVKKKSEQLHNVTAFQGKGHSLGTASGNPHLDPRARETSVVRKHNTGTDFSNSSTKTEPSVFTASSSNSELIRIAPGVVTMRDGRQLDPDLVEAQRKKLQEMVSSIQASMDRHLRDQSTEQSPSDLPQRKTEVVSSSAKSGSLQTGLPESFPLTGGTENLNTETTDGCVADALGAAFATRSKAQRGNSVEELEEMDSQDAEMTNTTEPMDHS
UniProt P52735: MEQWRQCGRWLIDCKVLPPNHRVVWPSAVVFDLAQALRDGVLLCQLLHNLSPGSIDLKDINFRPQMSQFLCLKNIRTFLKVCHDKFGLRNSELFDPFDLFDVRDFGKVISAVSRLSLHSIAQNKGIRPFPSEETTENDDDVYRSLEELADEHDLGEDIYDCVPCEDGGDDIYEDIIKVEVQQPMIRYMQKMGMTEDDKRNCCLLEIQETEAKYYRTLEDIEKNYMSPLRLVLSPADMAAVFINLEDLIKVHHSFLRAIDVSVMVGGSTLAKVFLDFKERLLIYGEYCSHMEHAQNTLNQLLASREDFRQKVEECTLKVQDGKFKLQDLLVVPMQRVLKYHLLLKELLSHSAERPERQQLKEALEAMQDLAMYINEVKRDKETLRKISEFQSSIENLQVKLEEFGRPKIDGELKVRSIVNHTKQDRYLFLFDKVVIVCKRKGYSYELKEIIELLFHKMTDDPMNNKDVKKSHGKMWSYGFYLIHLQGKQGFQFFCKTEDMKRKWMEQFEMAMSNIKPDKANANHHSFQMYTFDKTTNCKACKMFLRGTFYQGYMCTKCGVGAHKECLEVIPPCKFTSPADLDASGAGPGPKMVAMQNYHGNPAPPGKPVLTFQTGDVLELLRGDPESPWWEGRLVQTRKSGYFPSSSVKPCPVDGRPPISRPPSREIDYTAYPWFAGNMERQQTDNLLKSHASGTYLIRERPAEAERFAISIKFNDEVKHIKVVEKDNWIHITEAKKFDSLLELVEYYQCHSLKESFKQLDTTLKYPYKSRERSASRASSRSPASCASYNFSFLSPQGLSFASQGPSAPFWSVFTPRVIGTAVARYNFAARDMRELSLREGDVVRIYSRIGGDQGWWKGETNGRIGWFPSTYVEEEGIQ

Compound: CC1Cc2ccccc2N1C(=O)C1CCCN(C1)C(=O)CCl (mixture of isomers) [TRIM25 ligand 11 (diastereomer mixture)]
Test: probe-labelled cysteine peptide fold change vs DMSO (competition) (log2 fold change); higher = less target engagement (more negative = stronger competition)
Conditions: THP-1, incubation time: 4 h
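Further: competitive chemoproteomic profiling in live THP-1 cells with an iodoacetamide desthiobiotin (IA-DTB) probe, comparing probe-labelled peptide intensities in compound-treated cells against DMSO-treated controls.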

| Target | probe-labelled cysteine peptide fold change (10 µM) | probe-labelled cysteine peptide fold change (50 µM) |
| --- | --- | --- |
| UTP18_Q9Y5J1_241_NCQHANAERPTVAR (UniProt Q9Y5J1) | -0.0588 | -0.0636 |
| UTP20_O75691_2594_IKEDLEEQEALEDGVACADEK (UniProt O75691) | 0.0479 | 0.017 |
| UTP6_Q9NYH9_524_EQESCNMANIR (UniProt Q9NYH9) | -0.0727 | -0.0847 |
| VARS_P26640_682_CGEMAQAASAAVTR (UniProt P26640) | -0.153 | -0.0782 |
| VIRMA_Q69YN4_1559_CCSDFDLHSELER (UniProt Q69YN4) | 0.0763 | -0.104 |
| VPS29_Q9UBQ0_36_IQHILCTGNLCTK (UniProt Q9UBQ0) | -0.0615 | -0.165 |
| UTRN_P46939_447_METCPLDDDVK (UniProt P46939) | -0.0199 | -0.0786 |
| VAPB_O95292_173_VMEECK (UniProt O95292) | -0.105 | -0.0297 |
| UTRN_P46939_3097_HFNYDVCQSCFFSGR (UniProt P46939) | 0.0812 | 0.164 |
| VAMP7_P51809_21_HAWCGGNFLEVTEQILAK (UniProt P51809) | 0.0773 | 0.099 |
| VRK2_Q86Y07_239_SDVEILGYCMLR (UniProt Q86Y07) | 0.0676 | 0.0355 |
| UTRN_P46939_2185_ECIQEPSSVSQTR (UniProt P46939) | 0.0627 | 0.0855 |
| VPS4B_O75351_384_ADPNHLVDDLLTPCSPGDPGAIEMTWMDVPGDK (UniProt O75351) | 0.0288 | 0.138 |
| VPS53_Q5VIR6_242_DACLVANILDPR (UniProt Q5VIR6) | -0.0484 | 0.511 |
| VPS4A_Q9UN37_233_PSIIFIDEVDSLCGSR (UniProt Q9UN37) | 0.109 | 0.0906 |
| VARS_P26640_1185_CSIHLQLQGLVDPAR (UniProt P26640) | -0.0311 | -0.151 |
| VPS72_Q15906_163_GPHCERPLTQEELLR (UniProt Q15906) | 0.0992 | -0.085 |
| VAPA_Q9P0L0_179_KLMEECK (UniProt Q9P0L0) | -0.142 | -0.247 |
| VAC14_Q08AM6_79_KGGLIGLAACSIALGK (UniProt Q08AM6) | -0.0529 | -0.0136 |
| VPS54_Q9P1Q0_653_LMETFILDTEQICGR (UniProt Q9P1Q0) | 0.0792 | 0.139 |

| Target | probe-labelled cysteine peptide fold change (10 µM) | probe-labelled cysteine peptide fold change (50 µM) |
| --- | --- | --- |
| VPS16_Q9H269_763_SPIGYLPFVEICMK (UniProt Q9H269) | -0.00479 | 0.0346 |
| VPS13B_Q7Z7G8_1218_CSNPQVQLFYELTDIMNK (UniProt Q7Z7G8) | 0.133 | -0.00811 |
| VRK1_Q99986_220_CHDGTIEFTSIDAHNGVAPSRR (UniProt Q99986) | -0.155 | -0.0245 |
| VPS18_Q9P253_780_HVVQEEEDVQTAMACLASCPLLK (UniProt Q9P253) | -0.173 | 0.078 |
| VPS39_Q96JC1_239_CALNWTDIPVAMEHQPPYIIAVLPR (UniProt Q96JC1) | 0.176 | -0.0862 |
| VPS39_Q96JC1_877_YPNGVVVHYFCSK (UniProt Q96JC1) | 0.0492 | 0.234 |
| UTP18_Q9Y5J1_302_ACFSANGEEVLATSTHSK (UniProt Q9Y5J1) | 0.129 | 0.0133 |
| VIPAS39_Q9H9C1_446_CHDVVIDTYR (UniProt Q9H9C1) | 0.0154 | -0.011 |
| VLDLR_P98155_40_CEPSQFQCTNGR (UniProt P98155) | -0.0128 | 0.0756 |
| UTP18_Q9Y5J1_507_LVHLPSCTVFSNFPVIK (UniProt Q9Y5J1) | -0.0804 | -0.0221 |
| VCPIP1_Q96JH7_940_HCTFPHLPGK (UniProt Q96JH7) | 0.0492 | 0.0163 |
| VAPA_Q9P0L0_128_CVFEMPNENDK (UniProt Q9P0L0) | -0.189 | -0.346 |
| VCPIP1_Q96JH7_127_VMGLSNYHCK (UniProt Q96JH7) | -0.0347 | -0.224 |
| VPS35_Q96QK1_640_CFSEENHEPLR (UniProt Q96QK1) | 0.109 | -0.0171 |
| USP9Y_O00507_674_DGQLWLCAPQAK (UniProt O00507) | -0.0313 | -0.0409 |
| VPS28_Q9UK41_103_FRLDCPLAMER (UniProt Q9UK41) | -0.136 | -0.217 |
| VAV2_P52735_749_KFDSLLELVEYYQCHSLK (UniProt P52735) | 0.113 | -0.0382 |
| VIM_P08670_328_RQVQSLTCEVDALK (UniProt P08670) | -0.0573 | -0.0122 |
| VRK1_Q99986_205_YCPEGVHK (UniProt Q99986) | 0.0323 | -0.0156 |
| VAV2_P52735_44_DGVLLCQLLHNLSPGSIDLK (UniProt P52735) | -0.00185 | 0.458 |

3 records drawn at random from the list so far:

| Target | probe-labelled cysteine peptide fold change (10 µM) | probe-labelled cysteine peptide fold change (50 µM) |
| --- | --- | --- |
| UTP18_Q9Y5J1_507_LVHLPSCTVFSNFPVIK (UniProt Q9Y5J1) | -0.0804 | -0.0221 |
| UTP18_Q9Y5J1_302_ACFSANGEEVLATSTHSK (UniProt Q9Y5J1) | 0.129 | 0.0133 |
| VPS18_Q9P253_780_HVVQEEEDVQTAMACLASCPLLK (UniProt Q9P253) | -0.173 | 0.078 |
